The list shows a part of the results.

Chains of the proteins cited; added tags and fusions are not shown. Lines headed by an entry give the natural chain unless they say otherwise; changes in a name come on top.
UniProt Q9HD15: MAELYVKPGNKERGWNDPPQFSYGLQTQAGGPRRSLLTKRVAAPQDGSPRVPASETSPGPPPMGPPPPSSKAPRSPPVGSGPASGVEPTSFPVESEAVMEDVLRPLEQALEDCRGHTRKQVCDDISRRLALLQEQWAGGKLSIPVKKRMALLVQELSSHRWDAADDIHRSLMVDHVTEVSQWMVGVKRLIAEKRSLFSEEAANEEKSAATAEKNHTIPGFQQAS
UniProt Q8NB90: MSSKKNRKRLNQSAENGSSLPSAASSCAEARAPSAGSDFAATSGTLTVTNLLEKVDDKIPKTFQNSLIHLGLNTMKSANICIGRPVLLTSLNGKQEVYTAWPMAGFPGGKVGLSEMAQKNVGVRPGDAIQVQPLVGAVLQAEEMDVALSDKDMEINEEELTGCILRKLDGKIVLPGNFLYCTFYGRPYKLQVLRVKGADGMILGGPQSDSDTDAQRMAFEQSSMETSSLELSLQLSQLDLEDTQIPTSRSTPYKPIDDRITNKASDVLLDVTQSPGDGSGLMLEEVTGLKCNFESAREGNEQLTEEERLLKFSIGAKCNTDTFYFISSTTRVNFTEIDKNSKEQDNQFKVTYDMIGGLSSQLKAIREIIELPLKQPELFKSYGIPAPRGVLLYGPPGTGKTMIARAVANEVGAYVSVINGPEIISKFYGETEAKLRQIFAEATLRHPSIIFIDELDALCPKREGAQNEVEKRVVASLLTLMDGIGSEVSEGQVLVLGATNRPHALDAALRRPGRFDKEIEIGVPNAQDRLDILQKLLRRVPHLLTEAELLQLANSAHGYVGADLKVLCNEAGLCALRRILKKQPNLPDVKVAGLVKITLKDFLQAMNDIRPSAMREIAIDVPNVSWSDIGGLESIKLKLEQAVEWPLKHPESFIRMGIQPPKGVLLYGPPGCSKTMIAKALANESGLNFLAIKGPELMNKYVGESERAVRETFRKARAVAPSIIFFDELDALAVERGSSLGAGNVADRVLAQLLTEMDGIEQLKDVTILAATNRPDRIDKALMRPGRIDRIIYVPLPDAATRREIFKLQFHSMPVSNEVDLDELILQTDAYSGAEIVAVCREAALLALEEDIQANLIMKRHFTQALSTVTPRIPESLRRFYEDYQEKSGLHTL
UniProt O43426, whole entry: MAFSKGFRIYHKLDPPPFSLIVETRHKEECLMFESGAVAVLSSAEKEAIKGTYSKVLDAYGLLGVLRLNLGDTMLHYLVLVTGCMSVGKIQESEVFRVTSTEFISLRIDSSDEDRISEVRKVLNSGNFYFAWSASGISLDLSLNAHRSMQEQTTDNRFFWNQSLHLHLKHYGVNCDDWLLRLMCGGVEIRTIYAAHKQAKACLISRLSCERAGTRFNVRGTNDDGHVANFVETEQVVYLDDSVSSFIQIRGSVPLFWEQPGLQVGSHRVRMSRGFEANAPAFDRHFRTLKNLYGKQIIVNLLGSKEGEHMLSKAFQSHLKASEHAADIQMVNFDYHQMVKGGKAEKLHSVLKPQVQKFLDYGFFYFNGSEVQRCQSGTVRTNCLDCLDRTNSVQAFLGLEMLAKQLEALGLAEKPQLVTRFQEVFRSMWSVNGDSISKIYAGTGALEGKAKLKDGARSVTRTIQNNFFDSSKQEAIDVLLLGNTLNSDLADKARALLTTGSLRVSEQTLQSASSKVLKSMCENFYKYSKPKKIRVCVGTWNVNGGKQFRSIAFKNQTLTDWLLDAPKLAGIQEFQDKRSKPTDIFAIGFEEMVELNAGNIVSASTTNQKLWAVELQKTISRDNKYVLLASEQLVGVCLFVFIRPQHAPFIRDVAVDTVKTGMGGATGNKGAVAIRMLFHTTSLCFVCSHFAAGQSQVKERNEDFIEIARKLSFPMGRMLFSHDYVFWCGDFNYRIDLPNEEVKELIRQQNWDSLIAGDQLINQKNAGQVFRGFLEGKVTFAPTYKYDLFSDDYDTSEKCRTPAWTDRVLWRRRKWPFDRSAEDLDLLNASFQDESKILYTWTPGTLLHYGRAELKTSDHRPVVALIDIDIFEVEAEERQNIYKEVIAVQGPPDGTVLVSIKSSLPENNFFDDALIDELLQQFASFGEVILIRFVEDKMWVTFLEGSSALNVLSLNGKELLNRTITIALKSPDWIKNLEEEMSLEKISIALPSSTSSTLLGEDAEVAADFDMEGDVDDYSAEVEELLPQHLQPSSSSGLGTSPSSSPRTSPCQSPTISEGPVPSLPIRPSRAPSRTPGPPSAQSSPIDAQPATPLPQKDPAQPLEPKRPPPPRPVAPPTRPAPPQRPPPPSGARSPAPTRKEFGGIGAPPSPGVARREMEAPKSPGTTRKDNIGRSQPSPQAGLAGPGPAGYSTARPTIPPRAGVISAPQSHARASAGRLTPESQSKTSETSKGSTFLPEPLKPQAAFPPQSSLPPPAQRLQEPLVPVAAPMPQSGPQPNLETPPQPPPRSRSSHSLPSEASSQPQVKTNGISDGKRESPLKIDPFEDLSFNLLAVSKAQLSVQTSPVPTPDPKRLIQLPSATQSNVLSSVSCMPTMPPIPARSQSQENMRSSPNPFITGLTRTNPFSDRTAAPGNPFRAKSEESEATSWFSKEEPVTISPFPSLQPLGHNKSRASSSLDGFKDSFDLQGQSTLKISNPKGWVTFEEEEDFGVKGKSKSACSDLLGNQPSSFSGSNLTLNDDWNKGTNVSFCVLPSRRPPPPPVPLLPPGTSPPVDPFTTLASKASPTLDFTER
UniProt O60506: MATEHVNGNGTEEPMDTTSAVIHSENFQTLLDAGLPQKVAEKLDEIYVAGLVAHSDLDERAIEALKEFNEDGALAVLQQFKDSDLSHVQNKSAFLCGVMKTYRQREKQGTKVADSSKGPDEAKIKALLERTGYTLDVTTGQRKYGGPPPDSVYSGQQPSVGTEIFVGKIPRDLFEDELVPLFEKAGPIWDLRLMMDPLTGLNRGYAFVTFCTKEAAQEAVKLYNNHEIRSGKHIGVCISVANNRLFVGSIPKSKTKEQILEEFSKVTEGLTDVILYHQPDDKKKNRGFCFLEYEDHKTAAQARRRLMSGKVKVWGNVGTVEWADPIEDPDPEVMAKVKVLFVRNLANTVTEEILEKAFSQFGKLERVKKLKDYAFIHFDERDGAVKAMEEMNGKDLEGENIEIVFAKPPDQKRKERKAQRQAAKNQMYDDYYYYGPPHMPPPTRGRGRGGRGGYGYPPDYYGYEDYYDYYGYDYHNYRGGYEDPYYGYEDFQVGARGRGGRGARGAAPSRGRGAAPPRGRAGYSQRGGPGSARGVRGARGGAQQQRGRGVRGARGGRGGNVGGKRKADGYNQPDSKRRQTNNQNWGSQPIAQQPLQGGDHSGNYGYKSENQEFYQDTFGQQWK
UniProt O95926: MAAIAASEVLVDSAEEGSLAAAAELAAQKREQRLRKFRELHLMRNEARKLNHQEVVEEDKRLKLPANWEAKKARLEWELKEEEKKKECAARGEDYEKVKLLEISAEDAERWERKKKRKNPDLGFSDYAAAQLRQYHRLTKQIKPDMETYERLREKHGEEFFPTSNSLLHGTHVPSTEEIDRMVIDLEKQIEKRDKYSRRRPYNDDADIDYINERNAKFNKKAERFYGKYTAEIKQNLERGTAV
UniProt P62306, whole entry, looked up: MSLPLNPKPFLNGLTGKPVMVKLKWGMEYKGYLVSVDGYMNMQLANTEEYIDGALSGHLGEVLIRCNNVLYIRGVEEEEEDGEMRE
UniProt Q5SQN1: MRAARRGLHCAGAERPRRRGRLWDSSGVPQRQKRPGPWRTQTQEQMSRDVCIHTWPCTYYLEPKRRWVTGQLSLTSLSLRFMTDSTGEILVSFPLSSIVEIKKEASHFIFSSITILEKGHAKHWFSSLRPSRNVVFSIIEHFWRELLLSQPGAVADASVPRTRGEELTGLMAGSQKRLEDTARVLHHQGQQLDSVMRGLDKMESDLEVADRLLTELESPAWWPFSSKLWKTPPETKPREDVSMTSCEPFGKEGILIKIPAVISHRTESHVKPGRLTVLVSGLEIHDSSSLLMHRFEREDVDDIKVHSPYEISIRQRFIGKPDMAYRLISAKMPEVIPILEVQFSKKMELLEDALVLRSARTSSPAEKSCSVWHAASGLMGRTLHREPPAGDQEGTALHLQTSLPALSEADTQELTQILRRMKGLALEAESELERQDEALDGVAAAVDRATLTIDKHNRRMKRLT
UniProt Q8NEF9: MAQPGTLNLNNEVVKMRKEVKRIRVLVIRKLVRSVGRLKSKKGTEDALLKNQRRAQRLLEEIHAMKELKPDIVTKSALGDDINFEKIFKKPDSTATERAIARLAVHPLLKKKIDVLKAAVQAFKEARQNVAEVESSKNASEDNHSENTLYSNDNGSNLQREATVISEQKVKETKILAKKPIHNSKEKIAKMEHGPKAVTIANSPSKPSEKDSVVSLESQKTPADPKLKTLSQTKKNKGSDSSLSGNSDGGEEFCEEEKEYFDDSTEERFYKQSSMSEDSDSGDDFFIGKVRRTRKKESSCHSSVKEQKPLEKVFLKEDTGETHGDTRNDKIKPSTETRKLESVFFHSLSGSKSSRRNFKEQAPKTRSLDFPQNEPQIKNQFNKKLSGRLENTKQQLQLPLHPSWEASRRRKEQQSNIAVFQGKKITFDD
UniProt Q9NRC1: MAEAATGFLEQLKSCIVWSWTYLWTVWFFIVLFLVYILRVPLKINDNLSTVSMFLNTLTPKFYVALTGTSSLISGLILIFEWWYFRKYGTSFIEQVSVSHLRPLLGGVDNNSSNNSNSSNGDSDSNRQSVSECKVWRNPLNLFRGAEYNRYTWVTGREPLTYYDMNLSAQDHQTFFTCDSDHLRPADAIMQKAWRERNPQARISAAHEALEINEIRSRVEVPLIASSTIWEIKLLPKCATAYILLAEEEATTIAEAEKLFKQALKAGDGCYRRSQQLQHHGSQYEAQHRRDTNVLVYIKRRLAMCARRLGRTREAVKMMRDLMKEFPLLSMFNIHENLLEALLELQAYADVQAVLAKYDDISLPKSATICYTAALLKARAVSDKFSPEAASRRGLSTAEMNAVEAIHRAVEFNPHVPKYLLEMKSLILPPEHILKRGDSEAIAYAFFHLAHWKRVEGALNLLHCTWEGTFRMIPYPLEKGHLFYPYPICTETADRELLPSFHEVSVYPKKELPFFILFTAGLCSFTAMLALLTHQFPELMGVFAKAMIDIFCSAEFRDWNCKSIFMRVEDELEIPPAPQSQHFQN
UniProt P09132: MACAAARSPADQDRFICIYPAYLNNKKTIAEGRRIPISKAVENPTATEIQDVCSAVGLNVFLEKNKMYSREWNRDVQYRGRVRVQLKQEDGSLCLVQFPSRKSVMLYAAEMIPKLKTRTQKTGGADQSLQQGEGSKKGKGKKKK
UniProt Q8WVM7: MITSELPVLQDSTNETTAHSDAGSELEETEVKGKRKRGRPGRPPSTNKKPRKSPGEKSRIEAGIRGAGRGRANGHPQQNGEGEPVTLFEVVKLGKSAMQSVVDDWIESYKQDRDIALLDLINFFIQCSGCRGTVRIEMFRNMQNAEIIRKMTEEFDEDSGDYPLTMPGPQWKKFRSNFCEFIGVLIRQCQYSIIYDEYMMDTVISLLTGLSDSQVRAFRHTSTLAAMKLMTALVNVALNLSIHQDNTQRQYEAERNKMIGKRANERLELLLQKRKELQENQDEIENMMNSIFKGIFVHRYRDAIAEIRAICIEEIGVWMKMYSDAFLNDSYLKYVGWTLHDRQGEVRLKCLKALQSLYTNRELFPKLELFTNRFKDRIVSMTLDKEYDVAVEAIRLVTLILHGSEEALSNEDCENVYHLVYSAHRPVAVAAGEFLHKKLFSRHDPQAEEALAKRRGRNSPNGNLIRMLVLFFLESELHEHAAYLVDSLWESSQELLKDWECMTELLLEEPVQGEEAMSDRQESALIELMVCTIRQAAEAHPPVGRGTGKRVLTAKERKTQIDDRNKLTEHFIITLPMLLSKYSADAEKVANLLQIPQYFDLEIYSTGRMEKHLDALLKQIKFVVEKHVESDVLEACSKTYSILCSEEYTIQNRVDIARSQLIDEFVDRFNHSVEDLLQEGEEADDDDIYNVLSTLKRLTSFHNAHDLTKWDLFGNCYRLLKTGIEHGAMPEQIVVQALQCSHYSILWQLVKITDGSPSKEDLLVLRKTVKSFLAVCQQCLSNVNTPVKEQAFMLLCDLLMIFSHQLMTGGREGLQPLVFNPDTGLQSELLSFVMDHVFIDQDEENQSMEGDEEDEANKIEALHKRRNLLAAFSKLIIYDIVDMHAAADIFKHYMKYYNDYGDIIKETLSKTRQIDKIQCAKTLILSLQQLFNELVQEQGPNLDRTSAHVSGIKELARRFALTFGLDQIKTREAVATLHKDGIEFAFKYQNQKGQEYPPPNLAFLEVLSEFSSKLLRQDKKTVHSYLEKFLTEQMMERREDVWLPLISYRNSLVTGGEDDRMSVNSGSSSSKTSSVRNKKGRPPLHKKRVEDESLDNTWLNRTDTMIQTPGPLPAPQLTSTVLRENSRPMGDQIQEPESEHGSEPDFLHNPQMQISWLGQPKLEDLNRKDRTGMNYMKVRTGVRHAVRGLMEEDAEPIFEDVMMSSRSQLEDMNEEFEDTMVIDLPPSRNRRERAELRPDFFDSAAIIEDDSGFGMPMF

Compound in this test: COc1ccc(Cn2ccc3ccc(C(=O)NO)cc32)cc1
The test is described as follows: dose-dependent thermal stabilisation call (2D-TPP, DLPTP, 10% FDR) (binary (1 = stabilised)); higher = stabilised by the compound. The settings on record: system: HL-60 intact cells; concentration range 0.04-10 µM.
Consider SRA1 (UniProt Q9HD15), for which the “dose-dependent thermal stabilisation call” value was inactive: 0.
Consider SNX30 (UniProt Q5VWJ9), for which the “dose-dependent thermal stabilisation call” value is inactive: 0.
As for SPATA5 (UniProt Q8NB90), the figure is inactive: 0; as for SRP68 (UniProt Q9UHB9), inactive: 0; as for SYNJ1 (UniProt O43426), inactive: 0.
The value for SNX11 (UniProt Q9Y5W9) was inactive: 0; that for SYNCRIP (UniProt O60506) was inactive: 0; that for SMARCAD1 (UniProt Q9H4L7) was inactive: 0.
As for SYF2 (UniProt O95926), the figure is inactive: 0; as for SMAP1 (UniProt Q8IYB5), inactive: 0.
STK4 (UniProt Q13043): the “dose-dependent thermal stabilisation call” value was inactive: 0.
The value for SNRPF (UniProt P62306) was inactive: 0.
As for SNAP47 (UniProt Q5SQN1), the figure is inactive: 0.
The value for STARD3NL (UniProt O95772) was inactive: 0; that for SRFBP1 (UniProt Q8NEF9) was inactive: 0; that for SMU1 (UniProt Q2TAY7) was inactive: 0.
For SLCO4A1 (UniProt Q96BD0), the “dose-dependent thermal stabilisation call” value is inactive: 0.
The value for ST7 (UniProt Q9NRC1) was inactive: 0; that for SR140 (UniProt O15042) was inactive: 0.
As for SQSTM1 (UniProt Q13501), the figure is inactive: 0.
Take SYMPK (UniProt Q92797): the “dose-dependent thermal stabilisation call” value is inactive: 0.
With SRP19 (UniProt P09132), the “dose-dependent thermal stabilisation call” value was inactive: 0.
As for TAF4 (UniProt O00268), the figure is inactive: 0; as for SURF6 (UniProt O75683), inactive: 0; as for SPNS3 (UniProt Q6ZMD2), inactive: 0.
As for STAG1 (UniProt Q8WVM7), the figure is inactive: 0.
Consider STK33 (UniProt Q9BYT3), for which the “dose-dependent thermal stabilisation call” value is inactive: 0.

(Values after the supplement of paper PMC7666118.)
